For 1 substance, binding results are on record in paper PMC9655520.

By UniProt entry, the sequences of proteins in these tests, tags left out.
UniProt Q13535: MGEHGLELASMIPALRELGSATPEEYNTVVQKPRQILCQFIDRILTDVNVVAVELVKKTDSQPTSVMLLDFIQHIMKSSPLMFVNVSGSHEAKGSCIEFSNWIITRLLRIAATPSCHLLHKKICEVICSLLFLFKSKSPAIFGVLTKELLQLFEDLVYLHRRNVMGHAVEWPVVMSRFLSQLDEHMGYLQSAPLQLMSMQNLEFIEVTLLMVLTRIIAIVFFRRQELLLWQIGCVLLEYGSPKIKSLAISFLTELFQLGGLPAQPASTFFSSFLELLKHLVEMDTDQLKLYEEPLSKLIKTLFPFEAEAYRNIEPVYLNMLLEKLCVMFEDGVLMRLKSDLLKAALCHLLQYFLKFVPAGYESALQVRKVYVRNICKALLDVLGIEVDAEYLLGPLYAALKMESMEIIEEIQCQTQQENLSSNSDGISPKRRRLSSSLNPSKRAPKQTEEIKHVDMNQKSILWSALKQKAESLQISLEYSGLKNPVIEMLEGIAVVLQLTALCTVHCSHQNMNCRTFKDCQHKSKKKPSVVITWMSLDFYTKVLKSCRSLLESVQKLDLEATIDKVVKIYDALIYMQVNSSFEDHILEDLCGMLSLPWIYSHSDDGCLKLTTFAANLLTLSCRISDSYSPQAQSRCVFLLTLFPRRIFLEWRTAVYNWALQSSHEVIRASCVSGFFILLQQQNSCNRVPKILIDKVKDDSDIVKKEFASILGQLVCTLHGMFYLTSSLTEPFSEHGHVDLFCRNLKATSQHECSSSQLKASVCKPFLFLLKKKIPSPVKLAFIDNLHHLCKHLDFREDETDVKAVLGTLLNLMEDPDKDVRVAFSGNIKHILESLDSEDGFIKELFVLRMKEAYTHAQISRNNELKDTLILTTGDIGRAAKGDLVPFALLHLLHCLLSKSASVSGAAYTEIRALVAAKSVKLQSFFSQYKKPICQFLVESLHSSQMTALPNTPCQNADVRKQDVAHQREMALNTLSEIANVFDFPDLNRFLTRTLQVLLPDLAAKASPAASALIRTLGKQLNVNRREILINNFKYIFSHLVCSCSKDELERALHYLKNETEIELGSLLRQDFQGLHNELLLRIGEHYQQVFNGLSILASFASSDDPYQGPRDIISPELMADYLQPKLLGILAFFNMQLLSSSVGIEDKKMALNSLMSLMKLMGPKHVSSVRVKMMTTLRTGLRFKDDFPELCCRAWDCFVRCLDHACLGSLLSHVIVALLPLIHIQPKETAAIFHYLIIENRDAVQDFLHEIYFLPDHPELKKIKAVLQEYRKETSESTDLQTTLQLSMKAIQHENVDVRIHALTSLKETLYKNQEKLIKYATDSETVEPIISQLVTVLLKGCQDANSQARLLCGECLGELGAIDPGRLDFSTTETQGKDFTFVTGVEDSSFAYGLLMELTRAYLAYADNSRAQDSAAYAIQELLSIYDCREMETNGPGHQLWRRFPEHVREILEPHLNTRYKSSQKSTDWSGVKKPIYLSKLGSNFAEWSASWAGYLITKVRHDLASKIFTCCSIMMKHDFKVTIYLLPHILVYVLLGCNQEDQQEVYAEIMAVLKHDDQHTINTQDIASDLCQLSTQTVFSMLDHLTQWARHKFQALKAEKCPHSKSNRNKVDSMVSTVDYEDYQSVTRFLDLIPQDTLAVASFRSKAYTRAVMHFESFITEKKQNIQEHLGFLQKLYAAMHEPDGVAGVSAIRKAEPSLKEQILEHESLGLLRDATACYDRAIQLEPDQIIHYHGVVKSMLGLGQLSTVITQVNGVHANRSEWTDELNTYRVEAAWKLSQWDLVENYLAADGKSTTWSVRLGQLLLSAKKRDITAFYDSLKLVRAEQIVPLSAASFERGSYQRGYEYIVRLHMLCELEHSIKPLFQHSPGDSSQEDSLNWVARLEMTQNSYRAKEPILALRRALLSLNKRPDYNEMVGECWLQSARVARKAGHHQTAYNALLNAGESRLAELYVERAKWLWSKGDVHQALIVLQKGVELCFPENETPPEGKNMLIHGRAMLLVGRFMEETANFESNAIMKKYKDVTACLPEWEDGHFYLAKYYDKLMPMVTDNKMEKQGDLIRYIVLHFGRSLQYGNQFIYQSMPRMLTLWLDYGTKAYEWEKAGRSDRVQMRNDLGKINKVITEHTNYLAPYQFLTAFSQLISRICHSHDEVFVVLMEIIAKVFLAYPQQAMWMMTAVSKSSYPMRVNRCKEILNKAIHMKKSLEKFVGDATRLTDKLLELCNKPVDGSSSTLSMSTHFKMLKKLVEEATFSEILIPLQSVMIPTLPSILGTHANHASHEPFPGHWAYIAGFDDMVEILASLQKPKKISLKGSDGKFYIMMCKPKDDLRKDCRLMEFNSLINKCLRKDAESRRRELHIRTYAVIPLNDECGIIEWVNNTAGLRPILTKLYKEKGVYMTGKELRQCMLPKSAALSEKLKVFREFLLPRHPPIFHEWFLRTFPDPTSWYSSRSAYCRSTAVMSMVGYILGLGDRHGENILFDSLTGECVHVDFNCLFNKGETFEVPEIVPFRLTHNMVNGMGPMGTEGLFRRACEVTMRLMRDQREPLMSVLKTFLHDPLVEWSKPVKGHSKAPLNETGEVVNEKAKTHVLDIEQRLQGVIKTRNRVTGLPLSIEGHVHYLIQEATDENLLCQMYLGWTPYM

For the assay, the target named is T1, Flag-DCAF13 (DDB1- and CUL4-associated factor 13) (UniProt Q9NV06).
T1 sequence: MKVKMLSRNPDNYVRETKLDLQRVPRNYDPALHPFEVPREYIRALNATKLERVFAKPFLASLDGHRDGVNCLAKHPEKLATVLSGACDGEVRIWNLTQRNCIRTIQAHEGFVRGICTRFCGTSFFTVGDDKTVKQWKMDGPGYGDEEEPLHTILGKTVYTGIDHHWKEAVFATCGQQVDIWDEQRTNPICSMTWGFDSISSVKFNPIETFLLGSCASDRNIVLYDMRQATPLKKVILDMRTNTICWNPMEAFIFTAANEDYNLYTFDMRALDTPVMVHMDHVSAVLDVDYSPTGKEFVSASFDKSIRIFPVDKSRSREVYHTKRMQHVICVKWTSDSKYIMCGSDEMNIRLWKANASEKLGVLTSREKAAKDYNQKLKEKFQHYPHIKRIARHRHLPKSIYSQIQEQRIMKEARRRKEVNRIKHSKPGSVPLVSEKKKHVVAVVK
As to the kind of experiment: co-IP; Flag-co-IP-WB from FaDu cells with exogenous Flag-DCAF13, under hypoxia for 12 h; blots for ATR and P53.

No constants are given. Whether binding was seen depends on the method and setting. Binding seen in cells or lysates may run through a third protein. Some binding calls cover weakened binding; strength is not graded here. Where a sequence is shown, tags or fusion partners need not be part of it.

As for ATR (from UniProt Q13535 1-2644), the binding result is recorded as “binds”.
